Results are given in words; binding and its absence hold for the method and conditions named. Binding seen in cells or lysates may run through a third protein. These calls come from enrichment with a bait or labelling near it, and not all partners need be listed.
B1: Vangl1 (protein, UniProt Q8TAA9 1-524)
chain: MDTESTYSGYSYYSSHSKKSHRQGERTRERHKSPRNKDGRGSEKSVTIQPPTGEPLLGNDSTRTEEVQDDNWGETTTAITGTSEHSISQEDIARISKDMEDSVGLDCKRYLGLTVASFLGLLVFLTPIAFILLPPILWRDELEPCGTICEGLFISMAFKLLILLIGTWALFFRKRRADMPRVFVFRALLLVLIFLFVVSYWLFYGVRILDSRDRNYQGIVQYAVSLVDALLFIHYLAIVLLELRQLQPMFTLQVVRSTDGESRFYSLGHLSIQRAALVVLENYYKDFTIYNPNLLTASKFRAAKHMAGLKVYNVDGPSNNATGQSRAMIAAAARRRDSSHNELYYEEAEHERRVKKRKARLVVAVEEAFIHIQRLQAEEQQKAPGEVMDPREAAQAIFPSMARALQKYLRITRQQNYHSMESILQHLAFCITNGMTPKAFLERYLSAGPTLQYDKDRWLSTQWRLVSDEAVTNGLRDGIVFVLKCLDFSLVVNVKKIPFIILSEEFIDPKSHKFVLRLQSETSV
B2: Krt78 (protein, UniProt Q8N1N4 1-520)
chain: MSLSPCRAQRGFSARSACSARSRGRSRGGFSSRGGFSSRSLNSFGGCLEGSRGSTWGSGGRLGVRFGEWSGGPGLSLCPPGGIQEVTINQNLLTPLKIEIDPQFQVVRTQETQEIRTLNNQFASFIDKVRFLEQQNKVLETKWHLLQQQGLSGSQQGLEPVFEACLDQLRKQLEQLQGERGALDAELKACRDQEEEYKSKYEEEAHRRATLENDFVVLKKDVDGVFLSKMELEGKLEALREYLYFLKHLNEEELGQLQTQASDTSVVLSMDNNRYLDFSSIITEVRARYEEIARSSKAEAEALYQTKYQELQVSAQLHGDRMQETKVQISQLHQEIQRLQSQTENLKKQNASLQAAITDAEQRGELALKDAQAKVDELEAALRMAKQNLARLLCEYQELTSTKLSLDVEIATYRRLLEGEECRMSGECTSQVTISSVGGSAVMSGGVGGGLGSTCGLGSGKGSPGSCCTSIVTGGSNIILGSGKDPVLDSCSVSGSSAGSSCHTILKKTVESSLKTSITY
B3: Hnrnpdl (protein, UniProt O14979 1-420)
chain: MEVPPRLSHVPPPLFPSAPATLASRSLSHWRPRPPRQLAPLLPSLAPSSARQGARRAQRHVTAQQPSRLAGGAAIKGGRRRRPDLFRRHFKSSSIQRSAAAAAATRTARQHPPADSSVTMEDMNEYSNIEEFAEGSKINASKNQQDDGKMFIGGLSWDTSKKDLTEYLSRFGEVVDCTIKTDPVTGRSRGFGFVLFKDAASVDKVLELKEHKLDGKLIDPKRAKALKGKEPPKKVFVGGLSPDTSEEQIKEYFGAFGEIENIELPMDTKTNERRGFCFITYTDEEPVKKLLESRYHQIGSGKCEIKVAQPKEVYRQQQQQQKGGRGAAAGGRGGTRGRGRGQGQNWNQGFNNYYDQGYGNYNSAYGGDQNYSGYGGYDYTGYNYGNYGYGQGYADYSGQQSTYGKASRGGGNHQNNYQPY
B4: Mcm5 (protein, UniProt P33992 1-734)
chain: MSGFDDPGIFYSDSFGGDAQADEGQARKSQLQRRFKEFLRQYRVGTDRTGFTFKYRDELKRHYNLGEYWIEVEMEDLASFDEDLADYLYKQPAEHLQLLEEAAKEVADEVTRPRPSGEEVLQDIQVMLKSDASPSSIRSLKSDMMSHLVKIPGIIIAASAVRAKATRISIQCRSCRNTLTNIAMRPGLEGYALPRKCNTDQAGRPKCPLDPYFIMPDKCKCVDFQTLKLQELPDAVPHGEMPRHMQLYCDRYLCDKVVPGNRVTIMGIYSIKKFGLTTSRGRDRVGVGIRSSYIRVLGIQVDTDGSGRSFAGAVSPQEEEEFRRLAALPNVYEVISKSIAPSIFGGTDMKKAIACLLFGGSRKRLPDGLTRRGDINLLMLGDPGTAKSQLLKFVEKCSPIGVYTSGKGSSAAGLTASVMRDPSSRNFIMEGGAMVLADGGVVCIDEFDKMREDDRVAIHEAMEQQTISIAKAGITTTLNSRCSVLAAANSVFGRWDETKGEDNIDFMPTILSRFDMIFIVKDEHNEERDVMLAKHVITLHVSALTQTQAVEGEIDLAKLKKFIAYCRVKCGPRLSAEAAEKLKNRYIIMRSGARQHERDSDRRSSIPITVRQLEAIVRIAEALSKMKLQPFATEADVEEALRLFQVSTLDAALSGTLSGVEGFTSQEDQEMLSRIEKQLKRRFAIGSQVSEHSIIKDFTKQKYPEHAIHKVLQLMLRRGEIQHRMQRKVLYRLK
B5: Serpinh1 (protein, UniProt P50454 19-418)
chain: AEVKKPAAAAAPGTAEKLSPKAATLAERSAGLAFSLYQAMAKDQAVENILVSPVVVASSLGLVSLGGKATTASQAKAVLSAEQLRDEEVHAGLGELLRSLSNSTARNVTWKLGSRLYGPSSVSFADDFVRSSKQHYNCEHSKINFRDKRSALQSINEWAAQTTDGKLPEVTKDVERTDGALLVNAMFFKPHWDEKFHHKMVDNRGFMVTRSYTVGVMMMHRTGLYNYYDDEKEKLQIVEMPLAHKLSSLIILMPHHVEPLERLEKLLTKEQLKIWMGKMQKKAVAISLPKGVVEVTHDLQKHLAGLGLTEAIDKNKADLSRMSGKKDLYLASVFHATAFELDTDGNPFDQDIYGREELRSPKLFYADHPFIFLVRDTQSGSLLFIGRLVRPKGDKMRDEL
B6: Kdm3a (protein, UniProt Q9Y4C1 1-1321)
chain: MVLTLGESWPVLVGRRFLSLSAADGSDGSHDSWDVERVAEWPWLSGTIRAVSHTDVTKKDLKVCVEFDGESWRKRRWIEVYSLLRRAFLVEHNLVLAERKSPEISERIVQWPAITYKPLLDKAGLGSITSVRFLGDQQRVFLSKDLLKPIQDVNSLRLSLTDNQIVSKEFQALIVKHLDESHLLKGDKNLVGSEVKIYSLDPSTQWFSATVINGNPASKTLQVNCEEIPALKIVDPSLIHVEVVHDNLVTCGNSARIGAVKRKSSENNGTLVSKQAKSCSEASPSMCPVQSVPTTVFKEILLGCTAATPPSKDPRQQSTPQAANSPPNLGAKIPQGCHKQSLPEEISSCLNTKSEALRTKPDVCKAGLLSKSSQIGTGDLKILTEPKGSCTQPKTNTDQENRLESVPQALTGLPKECLPTKASSKAELEIANPPELQKHLEHAPSPSDVSNAPEVKAGVNSDSPNNCSGKKVEPSALACRSQNLKESSVKVDNESCCSRSNNKIQNAPSRKSVLTDPAKLKKLQQSGEAFVQDDSCVNIVAQLPKCRECRLDSLRKDKEQQKDSPVFCRFFHFRRLQFNKHGVLRVEGFLTPNKYDNEAIGLWLPLTKNVVGIDLDTAKYILANIGDHFCQMVISEKEAMSTIEPHRQVAWKRAVKGVREMCDVCDTTIFNLHWVCPRCGFGVCVDCYRMKRKNCQQGAAYKTFSWLKCVKSQIHEPENLMPTQIIPGKALYDVGDIVHSVRAKWGIKANCPCSNRQFKLFSKPASKEDLKQTSLAGEKPTLGAVLQQNPSVLEPAAVGGEAASKPAGSMKPACPASTSPLNWLADLTSGNVNKENKEKQPTMPILKNEIKCLPPLPPLSKSSTVLHTFNSTILTPVSNNNSGFLRNLLNSSTGKTENGLKNTPKILDDIFASLVQNKTTSDLSKRPQGLTIKPSILGFDTPHYWLCDNRLLCLQDPNNKSNWNVFRECWKQGQPVMVSGVHHKLNSELWKPESFRKEFGEQEVDLVNCRTNEIITGATVGDFWDGFEDVPNRLKNEKEPMVLKLKDWPPGEDFRDMMPSRFDDLMANIPLPEYTRRDGKLNLASRLPNYFVRPDLGPKMYNAYGLITPEDRKYGTTNLHLDVSDAANVMVYVGIPKGQCEQEEEVLKTIQDGDSDELTIKRFIEGKEKPGALWHIYAAKDTEKIREFLKKVSEEQGQENPADHDPIHDQSWYLDRSLRKRLHQEYGVQGWAIVQFLGDVVFIPAGAPHQVHNLYSCIKVAEDFVSPEHVKHCFWLTQEFRYLSQTHTNHEDKLQVKNVIYHAVKDAVAMLKASESSFGKP
B7: Hnrnpm (protein, UniProt P52272 1-730)
chain: MAAGVEAAAEVAATEIKMEEESGAPGVPSGNGAPGPKGEGERPAQNEKRKEKNIKRGGNRFEPYANPTKRYRAFITNIPFDVKWQSLKDLVKEKVGEVTYVELLMDAEGKSRGCAVVEFKMEESMKKAAEVLNKHSLSGRPLKVKEDPDGEHARRAMQKVMATTGGMGMGPGGPGMITIPPSILNNPNIPNEIIHALQAGRLGSTVFVANLDYKVGWKKLKEVFSMAGVVVRADILEDKDGKSRGIGTVTFEQSIEAVQAISMFNGQLLFDRPMHVKMDERALPKGDFFPPERPQQLPHGLGGIGMGLGPGGQPIDANHLNKGIGMGNIGPAGMGMEGIGFGINKMGGMEGPFGGGMENMGRFGSGMNMGRINEILSNALKRGEIIAKQGGGGGGGSVPGIERMGPGIDRLGGAGMERMGAGLGHGMDRVGSEIERMGLVMDRMGSVERMGSGIERMGPLGLDHMASSIERMGQTMERIGSGVERMGAGMGFGLERMAAPIDRVGQTIERMGSGVERMGPAIERMGLSMERMVPAGMGAGLERMGPVMDRMATGLERMGANNLERMGLERMGANSLERMGLERMGANSLERMGPAMGPALGAGIERMGLAMGGGGGASFDRAIEMERGNFGGSFAGSFGGAGGHAPGVARKACQIFVRNLPFDFTWKMLKDKFNECGHVLYADIKMENGKSKGCGVVKFESPEVAERACRMMNGMKLSGREIDVRIDRNA
B8: Zcchc17 (protein, UniProt Q9NP64 1-241)
chain: MNSGRPETMENLPALYTIFQGEVAMVTDYGAFIKIPGCRKQGLVHRTHMSSCRVDKPSEIVDVGDKVWVKLIGREMKNDRIKVSLSMKVVNQGTGKDLDPNNVIIEQEERRRRSFQDYTGQKITLEAVLNTTCKKCGCKGHFAKDCFMQPGGTKYSLIPDEEEEKEEAKSAEFEKPDPTRNPSRKRKKEKKKKKHRDRKSSDSDSSDSESDTGKRARHTSKDSKAAKKKKKKKKHKKKHKE
B9: Tbl3 (protein, UniProt Q12788 1-808)
chain: MAETAAGVGRFKTNYAVERKIEPFYKGGKAQLDQTGQHLFCVCGTRVNILEVASGAVLRSLEQEDQEDITAFDLSPDNEVLVTASRALLLAQWAWQEGSVTRLWKAIHTAPVATMAFDPTSTLLATGGCDGAVRVWDIVRHYGTHHFRGSPGVVHLVAFHPDPTRLLLFSSATDAAIRVWSLQDRSCLAVLTAHYSAVTSLAFSADGHTMLSSGRDKICIIWDLQSCQATRTVPVFESVEAAVLLPEEPVSQLGVKSPGLYFLTAGDQGTLRVWEAASGQCVYTQAQPPGPGQELTHCTLAHTAGVVLTATADHNLLLYEARSLRLQKQFAGYSEEVLDVRFLGPEDSHVVVASNSPCLKVFELQTSACQILHGHTDIVLALDVFRKGWLFASCAKDQSVRIWRMNKAGQVMCVAQGSGHTHSVGTVCCSRLKESFLVTGSQDCTVKLWPLPKALLSKNTAPDNGPILLQAQTTQRCHDKDINSVAIAPNDKLLATGSQDRTAKLWALPQCQLLGVFSGHRRGLWCVQFSPMDQVLATASADGTIKLWALQDFSCLKTFEGHDASVLKVAFVSRGTQLLSSGSDGLVKLWTIKNNECVRTLDAHEDKVWGLHCSRLDDHALTGASDSRVILWKDVTEAEQAEEQARQEEQVVRQQELDNLLHEKRYLRALGLAISLDRPHTVLTVIQAIRRDPEACEKLEATMLRLRRDQKEALLRFCVTWNTNSRHCHEAQAVLGVLLRREAPEELLAYEGVRAALEALLPYTERHFQRLSRTLQAAAFLDFLWHNMKLPVPAAAPTPWETHKGALP

Biological target: Biotin-FOXC1 (mouse) (UniProt Q61572)
Assay: affinity purification with mass spectrometry; streptavidin-agarose precipitation of biotinylated FOXC1 from nuclear extract of stable HEK293T cells (293T-Biotin-FOXC1); IP350 buffer (350 mM NaCl, 20 mM Tris-HCl pH 7.5, 0.5% NP40, 1 mM EDTA, 10% glycerin); SDS-PAGE, LC-ESI-MS/MS; proteins of the 293T-Biotin control deducted

binding, binds:
B1
B2
B3
B4
B5
B6
B7
B8
B9

Reference: PMC7956269
